Source: paper PMC8092261

T1: PfYTH.2-sandwich (PfYTH.2 with a C-terminal 2xFKBP-GFP-2xFKBP tag) (P. falciparum (strain 3D7)) (UniProt O77335)
T1 sequence: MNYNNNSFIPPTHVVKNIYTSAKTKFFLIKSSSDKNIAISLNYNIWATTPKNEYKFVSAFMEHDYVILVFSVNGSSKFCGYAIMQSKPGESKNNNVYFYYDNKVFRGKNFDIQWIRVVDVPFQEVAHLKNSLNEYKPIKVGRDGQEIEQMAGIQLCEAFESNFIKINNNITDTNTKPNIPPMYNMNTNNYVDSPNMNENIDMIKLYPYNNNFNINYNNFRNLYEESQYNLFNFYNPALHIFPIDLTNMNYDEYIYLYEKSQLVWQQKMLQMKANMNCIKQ

B1: polyadenylate binding protein 1 (PABP1; PF3D7_1224300) (protein, UniProt Q8I5H4 1-875)
chain: MIATGTNMMHPSFSTASLYVGDLNEDVTEAVLYEIFNTVGHVSSIRVCRDSVTRKSLGYAYVNYHNLADAERALDTLNYTNIKGQPARLMWSHRDPSLRKSGTGNIFVKNLDKSIDNKALFDTFSMFGNILSCKVATDEFGKSKSYGFVHYEDEESAKEAIEKVNGVQLGSKNVYVGPFIKKSERATNDTKFTNLYVKNFPDSVTETHLRQLFNPYGEITSMIVKMDNKNRKFCFINYADAESAKNAMDNLNGKKITDDGQIDETYDPKKEEATASTSGAANQTTGTDADKTDKNDKNNKADKNEKGDSSNANNNATATGATTTDTTTTPGETTTTTANADSTGANNNNGLSPNTNTSNTTTGSSNNSINLNENNNTAGNNNSTNNNNNSGSSMNNAGSAKKDETAASDCADTPNILYVGPHQSRARRHAILKAKFDNLNVENKNKHQGVNLYIKNLDDGIDDIMLRELFEPFGTITSAKVMRDEKEQSKGFGFVCFASQEEANKAVTEMHLKIINGKPLYVGLAEKREQRLSRLQQRFRMHPIRHHMNNPLNTPMQYASPQSPQLQFSQNTLSYGRPVITAFNQNNLISWRHQQAAQQQAVHQQAVHQQAAQQQLNFNTNLRGQINQMRLYTQNNMMNNNLNQNKPNAQLHHNQQYVPNALAQNGQQQPNLNAAGQHNAQQLQQQGNNQLLNNNMRNMNNRANRNMGNLGNMNNQKQLPLNINNKQQNAASQANQMNHQAQPQGAQAQQKNPQQMQQVPQGNNFKFTAQARNRMELPNKNANKVNTMNNNMNVNFNNNSTLTAAALASAPPSMQKQVLGENLFPLVANYHPTLAGKITGMMLEMDNSELLILLENEEQLKKKIDEALVVLQKAK
B2: gamete antigen 27 (PF3D7_1302100) (protein, UniProt Q8IEU2 1-217)
chain: MSKVQKDSAKPLDKFGNIYDYHYEHETHAPLSPRIRKVGDIEFHACSDYIYLLMTLSKDPEKFNYALKDRVSIRRYVRKNQNRYNYFLIEERVQDNIVNRISDRLISYCTDKEVTEDYIKKIDDYLWVEQRVIEEVSINVDHAREVKEKKRIMNDKKLIRMLFDTYEYVKDVKFTDDQYKDAAARISQFLIDVVDSYIIKPIPALPVTPDEPHHNNI
B3: CELF3-like protein (PF3D7_0823200) (protein, UniProt Q8IB66 1-286)
chain: MSLTNSSKIFIGSIPKDVTEEELKTEAAKYGTITQVYYVPATAQSPRGWAFITYEQRSEAYKAIEALDYKCIFPNSQRPLDVRFASYKYNNSNDAQGGNKNVWQKHVTTDGHPYYYNSVTGHSQWEKPKEMSATNFPGKGSAPSFGPPGANVFVFHLPSHWTDMELYQHFQHFGYVVSARIQRDANGRNKGYGFVSFNNPESALNAIKGMHGFYVSGKHLKVQLKKGEEHYVQMNTPAQPQLTPAQPYSVQQPIIGNHHQPYMTHLMYGGMDSPNQMRYNTYSISR
B4: PfYTH.1 (PF3D7_1419900) (protein, UniProt Q8ILQ1 1-572)
chain: MIRNKKKRKRNIYDLYIEMQKENYEDEEKRISYIDDGTITLEKHVKMRLEEQTNLLSIKGIDRVDIKQKKGKHSIICIHYIKNMCMKNLFCNYLHQLIYSRIPTCKNYMKYNYCADRVRGCCMFRHNLDNSNNNLYYNESKDEYLDDALKFLHEKNICVNYLLGFCSLGYGCRKIHKTKSRRYINIISTLPKFFLDSILVNKHLYTHLYNNPKKLSNDMNKLKDALIILSGEKYIDKNLSTNKNDNIDLLNKDVIQNNNIFNSNNIDIGIENNISHGDINNDSKNQKGVSFLPGYNNVDNKNNKYINEYIDDKNIINNKSSHTNNEKGYFHNNILLQSIDNNNNNNLIQENNINIPNVYDLNNNLIVAEKMKVFIIKCNQISHLYLSILYGVWATGKNNTRKFVNLFKDNYTIIFLFSVNESGGFQGYAKMVTMPIKNLYENLWGPITSRLGGNFRIQWIKMAKIDFDNFKHIVNPYNDNLPLKKSRDGTELPLNVASILCNKMNDMPNEDFLTGTIYEFKRRINHSSFFINLHKQNILNTNTRWDILIFNLNQKSDCTNITLIDGTEQNIT

Target: T1, PfYTH.2-sandwich (PfYTH.2 with a C-terminal 2xFKBP-GFP-2xFKBP tag) (P. falciparum (strain 3D7))
Assay: affinity purification with mass spectrometry; PfYTH.2-sandwich parasites (3 replicates) against wild-type 3D7 (2 replicates, control); cross-linked with 0.5 mM DSP, lysed in RIPA buffer, anti-GFP magnetic beads overnight at 4°C, on-bead trypsin digestion, LC-MS; hits: ≥2 unique peptides in at least 2 of 3 replicates and not present in the control

Row | Molecule | binding
1 | eukaryotic initiation factor 3 subunit c (eIF3c) (P. falciparum (endogenous in strain 3D7)) | binds
2 | eukaryotic initiation factor 3 subunit h (eIF3h) (P. falciparum (endogenous in strain 3D7)) | binds
3 | eukaryotic initiation factor 3 subunit a (eIF3a) (P. falciparum (endogenous in strain 3D7)) | binds
4 | B1 | binds
5 | B2 | binds
6 | B3 | binds
7 | B4 | no binding

These are yes or no findings as the source states them, for the method shown. Binding seen in cells or lysates may run through a third protein. Here binding means that the protein was enriched with, or labelled near, the bait; the list need not be complete. A no says only that the protein was not detected with the bait. Tags and fused reporters may be left off the sequences shown.
